The text below walks through data of PMC7819943, “Rice protein-binding microarrays: a tool to detect cis-acting elements near promoter regions in rice”.

Some of the results follow.

This test deals with T1, OsSMF1 (Oryza sativa, UniProt Q6ZLB0 1-436).
T1 sequence: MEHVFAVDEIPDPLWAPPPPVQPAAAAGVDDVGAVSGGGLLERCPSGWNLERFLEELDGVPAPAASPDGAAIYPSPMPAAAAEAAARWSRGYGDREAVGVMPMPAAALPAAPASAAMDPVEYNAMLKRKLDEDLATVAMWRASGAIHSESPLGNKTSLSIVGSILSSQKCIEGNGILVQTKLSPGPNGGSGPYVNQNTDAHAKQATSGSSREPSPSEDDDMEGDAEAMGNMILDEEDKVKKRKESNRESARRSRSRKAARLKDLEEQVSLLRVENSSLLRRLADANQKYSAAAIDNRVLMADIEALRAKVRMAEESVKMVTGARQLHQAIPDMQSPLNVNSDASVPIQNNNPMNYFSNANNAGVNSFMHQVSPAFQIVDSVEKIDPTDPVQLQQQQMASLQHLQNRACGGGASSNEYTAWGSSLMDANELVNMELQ
Briefly: protein-binding microarray (RPBM); PBS, 2% BSA, 51.3 ng/ul salmon testes DNA, 50 uM zinc acetate, 200 nM TF, 25 C, 1 h; high values mean tight binding. Conditions: protein: recombinant; tags: N-terminal polyhistidine and DsRed monomer fusion (pET32a); chain copies: 2; label: CyDye5-dUTP incorporated in the synthesized complementary strand; 3' TTTTT single-stranded linker to array surface; dsDNA, one strand shown. In short, it runs like this: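 The binding signal is fluorescence intensity per feature, in arbitrary units, read on an Axon 4000B scanner. Polyhistidine- and DsRed-tagged transcription factors (N-terminal fusions) from E. coli BL21-CodonPlus were purified on Ni–NTA and applied at 200 nM for 1 h at 25 °C to a double-stranded, BSA-blocked custom Agilent array in buffer with 50 µM zinc acetate.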
Regarding “ATGGTCCCACCTGTCATACACACATTGCGTCTTGGAGTTCCGGAGTCACCTAGTGCAG”, the binding signal is 3560 fluorescence intensity (a.u.). “TCCTCCATCGCCGCCTTCACCGAGTCACCGCCCGTCATCCCGGAGTCACCTAGTGCAG”: the binding signal is 3380 fluorescence intensity (a.u.). For the sequence “TATCTCAGCCACTGAATCAGTGACGTCCGACACAGTGACACGGAGTCACCTAGTGCAG”, the binding signal is 4140 fluorescence intensity (a.u.).

For the sequence “CGCGCCGACGACGGCCTCCACGTCACGCGCGACGTCCGGCCGGAGTCACCTAGTGCAG”, the binding signal is 8230 fluorescence intensity (a.u.). Under “GGGGTGTTTAGATTCAGTGGTGTAAAGTTTTAACGTGTCACGGAGTCACCTAGTGCAG” stands 4560 fluorescence intensity (a.u.). As to “ATAAAACCACGTCACTAATCAGTTTGACATATTCACATATCGGAGTCACCTAGTGCAG”, the binding signal was 9580 fluorescence intensity (a.u.). For “CTATTGTACCTGCTCTAATGTGCAATGCATCTCCATGAATCGGAGTCACCTAGTGCAG”, the binding signal is 4170 fluorescence intensity (a.u.). As for “TACTGGTGCAAATGAAGAGTCATCAAGATCCCATGCCATTCGGAGTCACCTAGTGCAG”, the binding signal is 3180 fluorescence intensity (a.u.).

Take “TGCGGCTTGCTAAAACACGTGCCAATGACATGTGGAGCTACGGAGTCACCTAGTGCAG”: the binding signal is 3920 fluorescence intensity (a.u.). Under “GAACTCAACTCCTCTGATGACAACTTTAATCAGGCAGTGTCGGAGTCACCTAGTGCAG” stands 4730 fluorescence intensity (a.u.); under “CCATCTTAACAAACCGATGTGGCACATTGTGATTGAATCTCGGAGTCACCTAGTGCAG”, 4260 fluorescence intensity (a.u.); under “TCCATCTCCCTCATCACGCCGACGCCGCAGCCTCTCCCCACGGAGTCACCTAGTGCAG”, 3900 fluorescence intensity (a.u.). Under “ACTGTCTCTCTCTCCTCCTCTCCTCTACTTAACACCAAAGCGGAGTCACCTAGTGCAG” stands 4420 fluorescence intensity (a.u.); under “AAATTTCGGACTGAAATTTCGAGGTATCGGTGACCTCCGACGGAGTCACCTAGTGCAG”, 22600 fluorescence intensity (a.u.). For “CCGGCTGCGTGACTGTGTCTGCGTCGCGTCTCCTCCACTTCGGAGTCACCTAGTGCAG”, the binding signal is 3160 fluorescence intensity (a.u.). The figure for “TCCCGCGTGTTGTGCTGTGCTGTGCTGGTACTACTCCTTACGGAGTCACCTAGTGCAG” is 3680 fluorescence intensity (a.u.). Under “TTAGATTGGATCATGACGCCAATGTTATTGGTGCTATTAGCGGAGTCACCTAGTGCAG” stands 7520 fluorescence intensity (a.u.); under “ATTGTTGAATGACGCGGAAACGTTTCTTTGCATCATATGGCGGAGTCACCTAGTGCAG”, 5950 fluorescence intensity (a.u.); under “GCCTCATGGCCTTTGCTCGGCCTCGCCCTGTCCCACACCGCGGAGTCACCTAGTGCAG”, 4110 fluorescence intensity (a.u.). The figure for “GGAGAAAAGCGGAGAAGCCACGTCAAGTCGTCTCCCGCCCCGGAGTCACCTAGTGCAG” is 15600 fluorescence intensity (a.u.). With “GAGTATGAAGATTACTAGTGATGCTGAAATTTCTGACATACGGAGTCACCTAGTGCAG”, the binding signal was 3790 fluorescence intensity (a.u.).

For the sequence “ACTACCACTAGGATTGTACACACTGTCATGTCCTGTGCACCGGAGTCACCTAGTGCAG”, the binding signal was 4380 fluorescence intensity (a.u.).

For “CAAACTTTTGTATATTGTGATGCCAAGTTTTCTCTTGTCGCGGAGTCACCTAGTGCAG”, the binding signal was 18500 fluorescence intensity (a.u.). With “AAATTTGGAGAGAGCCAATAATGAAACGGGAGATGACTCACGGAGTCACCTAGTGCAG”, the binding signal is 5180 fluorescence intensity (a.u.). The figure for “TACAAGCCACGTCGGTTATAAACCCCACCACCTCCCACTCCGGAGTCACCTAGTGCAG” is 10000 fluorescence intensity (a.u.); for “ACGCCCCTGTGGAAAAGGAATGAAGCGAGCGCACAGCGCACGGAGTCACCTAGTGCAG” it is 23100 fluorescence intensity (a.u.). As for “TAAAGCAATGCACTAATGTTGTTTTCCACGTCCATCCGGCCGGAGTCACCTAGTGCAG”, the binding signal was 3250 fluorescence intensity (a.u.). The figure for “TCGAGCAAGGCATCGTGACGTCACGCACGCTCTCCCGTAACGGAGTCACCTAGTGCAG” is 24100 fluorescence intensity (a.u.); for “GTTCGTCGGCAAATGGCGGCGCCAGCCTACGTGTCCTCTCCGGAGTCACCTAGTGCAG” it is 12200 fluorescence intensity (a.u.). The figure for “TCCCAAATCTTTCTTAATAAATATATAAAAGTTTTACGTACGGAGTCACCTAGTGCAG” is 3280 fluorescence intensity (a.u.); for “GCAAACGCAGCAGAGTCACGTACGTCACCCGTGGCGCGGTCGGAGTCACCTAGTGCAG” it is 7470 fluorescence intensity (a.u.); for “TGCAGCGCAACATCAGCTCTGTCACACGTTGTGCTGGGGCCGGAGTCACCTAGTGCAG” it is 4920 fluorescence intensity (a.u.). For “GCTTGATCCAGATTCCAAGCTACAGTCTCATGGGCCCCTGCGGAGTCACCTAGTGCAG”, the binding signal is 20500 fluorescence intensity (a.u.). In the case of “TGGCCAGGTGTTTCATGGTAGTACAGCACGAGTCGACCTGCGGAGTCACCTAGTGCAG”, the binding signal is 3180 fluorescence intensity (a.u.).

Regarding “AAGCATATCGCGAAGCCGTACAGCCTCTGCACCGAGATTCCGGAGTCACCTAGTGCAG”, the binding signal was 27900 fluorescence intensity (a.u.).

Turning to “GATGTTTGGTCCATGTAGCCACGCAATATTCTTCGATATTCGGAGTCACCTAGTGCAG”, the binding signal was 4560 fluorescence intensity (a.u.).

For “GACACGGTTGAGTGCACGACTACACGAGTGACGTGAGTCTCGGAGTCACCTAGTGCAG”, the binding signal is 4040 fluorescence intensity (a.u.). With “ATCAGATTTACCGGCGTATCTTGACGGCCACGTCAGTCCCCGGAGTCACCTAGTGCAG”, the binding signal is 19100 fluorescence intensity (a.u.).

With “TGTTTCTCCAGTCTCCACATCACTGCGTGTCTGCGTCGCCCGGAGTCACCTAGTGCAG”, the binding signal was 8530 fluorescence intensity (a.u.). The figure for “GTTTAGATGGTGGTTTTGGCTGACGTGTCACCTACGTGGCCGGAGTCACCTAGTGCAG” is 24200 fluorescence intensity (a.u.). Under “GCGTGCCGAAGGTGTGTCCCCTGCACCGGCTCCGGCAGGTCGGAGTCACCTAGTGCAG” stands 9960 fluorescence intensity (a.u.); under “GACGCCGCCAACGCCACGCTCTGGTCCTCCTTCGACCACCCGGAGTCACCTAGTGCAG”, 3560 fluorescence intensity (a.u.).
